From PubChem BioAssay AID1347426 (Functional Genomics Laboratory (NCATS/FGL), 2020) come the findings set out here.

In all, about 31,000 sequences went through this assay and about 1,400 (4.5%) were called active.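 Rule for the calls: active = median seed-adjusted z-score above 1 or below -1; inactive = the rest.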 Some of the results follow.

The nature of the test: Novel Modifiers of Survival Motor Neuron (SMN) Protein: Gene Identification via Genome-wide siRNA Screen.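 Note: luminescence tracks full-length SMN protein made from the SMN2 reporter.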 The settings on record: HEK293T SMN2-luciferase reporter, siRNA knockdown, 72 h; actives lie on both sides. A digest of the protocol:
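Each of three siRNAs per gene is reverse-transfected (1 pmol) into reporter HEK293T cells whose luciferase output tracks SMN protein level. After 72 h culture, ONE-Glo luminescence is control-normalized, log10-transformed and MAD-standardized; Common Seed Analysis deprioritizes seed-driven hits.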
On the technique in general: In a reporter assay the amount or activity of a reporter protein is the signal.
Consider GAGAUGGAUUCGAAGAACATT against DHRSX, for which the median seed-adjusted z-score was inactive: -0.686.

With AGAUGUGAGUGACUUGGAATT against APOF, the median seed-adjusted z-score was inactive: 0.0982. With CACCAUAUGUAGUCUCAUUTT against ORC3L, the median seed-adjusted z-score was inactive: -0.254. In the case of GUGCUGAUAUUGAUGCGUUTT against PAPOLA, the median seed-adjusted z-score is inactive: 0. In the case of GAAUCGUGAGGAUCGUAUATT against PLCG1, the median seed-adjusted z-score was inactive: -0.336. The result for GGCUGUACUUCGUCAUGGATT against PRKCA reads inactive: -0.249; that for GCUUUUGCAAAGACAACUATT against ASPA, inactive: -0.138. The result for GCAACUCAGUUCACGCAAATT against SENP8 reads inactive: 0; that for GAUGGACUCUUCAAAUUCATT against CYP27C1, inactive: 0.0462; that for CUACAGAUGUUCAUCGGCATT against NFATC4, inactive: 0.

On to CCGUUCACCUUGUCACUGATT against TEAD2, for which the median seed-adjusted z-score is inactive: 0.96. Consider GCAGCCGAAGAUGAACUAATT against PMS2, for which the median seed-adjusted z-score was inactive: -0.162.

On to GAGUGGUAACUUCAAUUUUTT against CPA2, for which the median seed-adjusted z-score was inactive: 0.0374. Regarding CCUUACCUAUGGAAUCAUATT against SLC16A10, the median seed-adjusted z-score was inactive: -0.205. As to CGAGUGCAGUGCCUCCAAUTT against NTM, the median seed-adjusted z-score is inactive: 0. On to CGUUAUCAGCAGAUAAUGATT against TRPC3, for which the median seed-adjusted z-score is inactive: -0.0856. As for GACUGAUCUUCUUCCUAAATT against SULT1B1, the median seed-adjusted z-score was inactive: -0.115. As to CAGCGAUCAUUCAUACCUATT against ZNF597, the median seed-adjusted z-score was inactive: 0.366.

For the sequence CGGCCCUCCUCUGAAAAGATT against POU4F2, the median seed-adjusted z-score is active: 1.46. With CUGCUUAUAUCAAAACGGATT against EGF the figure was inactive: 0.00831; with GAGGUAAGAUGGAUGAAGATT against ACSM1, inactive: 0.658. With CCCUUUACGUCAUCCCUGATT against RELA, the median seed-adjusted z-score was inactive: -0.646.

GGAUGCUGCUCUACUCAAATT against SENP3: the median seed-adjusted z-score is inactive: 0.543. As to GGCUCCUUAUAUGACUAUUTT against ACVR1C, the median seed-adjusted z-score is inactive: -0.0005. As for GGAGAAAUCAGCUACAGGATT against SRD5A2, the median seed-adjusted z-score was inactive: 0.185. On to GGAUCUACCUGUCACUACUTT against ARHGEF2, for which the median seed-adjusted z-score was inactive: 0.0929. Consider CCUCGUCCCUGUGGAAAGATT against NOS3, for which the median seed-adjusted z-score was inactive: 0.212.

For the sequence CAAAGACAGCUUUCACAGUTT against MAX, the median seed-adjusted z-score was inactive: 0.0949. For CCUACACCAUGAUCGGAAATT against KIF26B, the median seed-adjusted z-score was inactive: -0.153. As to GCAUCGUACAAAAACGCAUTT against SPON1, the median seed-adjusted z-score was inactive: 0.248. On to CAUUGUCUCCUGUUCGAUUTT against SGK269, for which the median seed-adjusted z-score was inactive: -0.171. Consider GCGUACAGCGUGUCCAUGATT against SLC16A5, for which the median seed-adjusted z-score was inactive: -0.151. The result for GGACUUAACGGUAUCCAAATT against PCDHB10 reads inactive: -0.09; that for GCAGGAGAUUCAUCGAAGATT against DPP10, inactive: -0.0478. Consider ACAAGGCACUUGUCACUAUTT against KCNJ11, for which the median seed-adjusted z-score is inactive: -0.567. For the sequence GCAUCACGAUUAAUGUUCUTT against TGM5, the median seed-adjusted z-score is inactive: 0.0181. With GCAUGUCCAUCUACUCGGATT against GRIN1 the figure was inactive: -0.137; with CACACUUCCUACGACAAAATT against PIP4K2A, inactive: 0.469; with GAGAAAAGCUAGACAAAAUTT against IFIT1, inactive: -0.489. For GCCUAGACCACAUAAUGAATT against IL17RB, the median seed-adjusted z-score was inactive: -0.464. Consider CUAAAAGACCGAACAAUAATT against HNRPUL1, for which the median seed-adjusted z-score is inactive: -0.047.

As to CGUGAUUAGUGGAGUACUATT against CENPC1, the median seed-adjusted z-score is inactive: 0. The result for CCCGUACUGUUUAACAAUUTT against HERC3 reads inactive: -0.0884; that for CAGCCUUAUAUAUCAAAGATT against ZNF674, inactive: 0.234.

For CCAGUAUGAUGGGUCCAUATT against CADM4, the median seed-adjusted z-score was inactive: 0.16. Regarding GCUUUGUUGAGUUCUACUATT against TREH, the median seed-adjusted z-score is inactive: 0.396.

With CCAAGAUUGCUGACUCUAATT against FLOT2, the median seed-adjusted z-score was inactive: 0.961.

On to CCCUCUUUGGUCUAACUCATT against HOXA3, for which the median seed-adjusted z-score is inactive: 0.315. CCAGAUUUAUGAGAAGCAUTT against MCM3: the median seed-adjusted z-score is inactive: 0.339.

GGGACUCAAGUGAAAGUGATT against CD300LB: the median seed-adjusted z-score was inactive: -0.466. Take GGUUUACCAUAGUUACUUUTT against TXNRD1: the median seed-adjusted z-score was inactive: 0.485. Regarding CAACGAUAGAAGAUUCCUATT against RAP1A, the median seed-adjusted z-score was inactive: 0.276. The result for CCAGAAAACUUGCGAAACATT against RFX4 reads inactive: -0.0226; that for AGAGUUCACUGAAACGGAATT against CD40, inactive: 0.275; that for GGAAAUCGGCCUACAAGAUTT against LONP1, inactive: -0.291. As for CAGGUCAAGUGUUACCGAUTT against ZCCHC13, the median seed-adjusted z-score is inactive: -0.297. GCAACUCCAGCCUAAUUAATT against ZNF792: the median seed-adjusted z-score is inactive: 0. Regarding GGAUAGCACUUGUCCUGAATT against ZFY, the median seed-adjusted z-score was inactive: -0.128.

For AAGUUUUACUCAAUCCAAATT against PHOX2A, the median seed-adjusted z-score was inactive: 0.466. With AGCUCAACCGGUUUAAUAATT against SLC9A1, the median seed-adjusted z-score was inactive: 0. As for GCGUCAGACUUUUUCACCATT against TIA1, the median seed-adjusted z-score was inactive: -0.188. With CCACCGUGUUGCAGAUAUATT against SND1 the figure was inactive: -0.0434; with CUAAACCUCUGAUCUCUUATT against SOCS7, inactive: 0.179; with CUCCUUUCCUGAUUACUUUTT against ZNF672, inactive: 0.35. On to CAGUUGGAGUUUGACCCAATT against MMP3, for which the median seed-adjusted z-score is inactive: 0.0592. The result for CCAUCUAACCAGACAAGAATT against ERO1L reads inactive: -0.251.

As for GCUUCUCACUCAUCACUAATT against NP, the median seed-adjusted z-score was inactive: -0.386. Regarding UCCUGUGCAUUGAUCGCUATT against HRH1, the median seed-adjusted z-score was inactive: 0.204. For GAAGGUGCCUGUGCAGACATT against PRSS22, the median seed-adjusted z-score is inactive: -0.565. Consider GAGCAGGUGUUAUUAUGGATT against CLCN3, for which the median seed-adjusted z-score is inactive: -0.0801. Take ACAAAAAGCUAAUACCAGUTT against SMAD6: the median seed-adjusted z-score is inactive: -0.167.

On to GAAAACCCUUGUAAGUAUATT against ZNF354A, for which the median seed-adjusted z-score is inactive: 0.401. Regarding GCACUUUAUUUGACUACUUTT against TRNT1, the median seed-adjusted z-score was inactive: 0.142. Regarding CAGUCAAGGCGAAAGGUUUTT against SDHA, the median seed-adjusted z-score was inactive: -0.103. For GGGCAUGCGUGGGUUCAAATT against SCARA5, the median seed-adjusted z-score was inactive: -0.278. Consider UCUUAUUUAUUCUACAUCCTT against TNFRSF6B, for which the median seed-adjusted z-score was inactive: 0.0458.

With GCACCUUUGUGACCUAUGATT against KIF9, the median seed-adjusted z-score is inactive: 0.

Consider UCAUCAAUCCAAUAAUCUATT against HTR1D, for which the median seed-adjusted z-score was inactive: -0.155. On to UGGACAUUCUUGCACCCAATT against CHTF18, for which the median seed-adjusted z-score is inactive: 0.371. The result for GGACUAUAAAUCCAGCUUUTT against TOMM34 reads inactive: -0.503. Regarding CGCAGUGUGAAAUACCUAATT against BBS10, the median seed-adjusted z-score is inactive: 0.298. On to CCCUGAAACUCGUCCUGUUTT against ZNHIT3, for which the median seed-adjusted z-score was inactive: -0.311. As to AAUUAUAGAUGGGAAUGAATT against HNRNPA1, the median seed-adjusted z-score is inactive: 0.563. The result for CGUUGUCCAUGGUGAGGAUTT against ELA3A reads inactive: -0.0465; that for GCAUGUCCGAGACACCAAATT against IL13, inactive: 0.435. For CAGUUGCAACUCUUCGUGATT against ALB, the median seed-adjusted z-score is inactive: -0.153. For the sequence GGAGCUUCUUGGGACCUGUTT against CD97, the median seed-adjusted z-score was inactive: 0.202.

In the case of GGUUCUCUUGCAUUACUUUTT against GLP2R, the median seed-adjusted z-score is inactive: 0.492.

Turning to GGUUGAUAUUUGUGGUCGATT against ARF3, the median seed-adjusted z-score was inactive: 0.18. In the case of CCCUAGCUGUAAUCACUAATT against DNM1L, the median seed-adjusted z-score was inactive: -0.153. With CCACACCUACAAUACCUAUTT against FKBP10 the figure was inactive: 0.229; with CAUUAUCGAUACUAUGUAATT against PSMD6, active: -1.03. Take GGCCUAACCAUAUGCCUAUTT against SS18: the median seed-adjusted z-score was inactive: 0.34. As for GCAGGCCUCCAGCUACUAUTT against SOX8, the median seed-adjusted z-score is inactive: 0.186.

Regarding GUUGAGCCCUUGUAUAUUATT against UBE2C, the median seed-adjusted z-score is inactive: 0.

For the sequence CAUUAAAGCAGCUACCAAUTT against PSMC3IP, the median seed-adjusted z-score was inactive: -0.0482. The result for GAAUGUUCUGAAUCGCGAATT against NLRC4 reads inactive: -0.00107. With CCUUAGUUCUUCCUCGGAATT against PARP12, the median seed-adjusted z-score was inactive: -0.287.

Regarding CUUCAGAAUGUAUACAGAATT against ACYP2, the median seed-adjusted z-score was inactive: 0.286. The result for GGGAGAACCUUGCUAGUGATT against LARP5 reads inactive: -0.144; that for CGUGAUAUCCAGUUUGAUATT against ALOX5, inactive: -0.201; that for GCAUCGUCAUUCCUAAUGATT against ITGB6, inactive: -0.5. With GCCUUGCAAUUUCCGUAUATT against AOF1 the figure was inactive: -0.211; with GGAAUUCCUUGGAUCACCATT against GLYAT, inactive: 0.68.

As for GAAUCUACCGGGAAACAGATT against CHRM5, the median seed-adjusted z-score is inactive: -0.553.

Consider GGAAAGGCGGGAACAAUAATT against PIK3R2, for which the median seed-adjusted z-score is inactive: 0.421. The result for GCAUUUUGGAGGACCAGGATT against PGLS reads inactive: 0.188; that for CAAACUUAAAGGUCAGAAATT against WHSC1, active: 1.17.
